The text below walks through data of article PMC10734772 (Turkish Journal of Chemistry, 2021).

The structures appear in SMILES notation. pIC50: −log10 of the molar value.

One assay has as its system Nalm-6. As to the kind of experiment: MTT assay, Nalm-6 cells. The following applies: Homo sapiens; Nalm-6, MTT, 24 h, range 0.3–200 μM, six replicates. Format: cell-based. On the procedure:
(§1) K562, Jurkat, Molt-4, and Nalm-6 cell lines were cultured in RPMI-1640 medium (ECM2001, Euroclone), Reh cell line was cultured in DMEM medium (LM-D1111-Biosera) Hek293T cell line was cultured in IMDM medium (AL070A - HiMedia) supplemented with 10% heat-inactivated fetal bovine serum (F7524-Merck & Co., USA,) penicillin and streptomycin (P4333-Sigma Aldrich). K562, Jurkat and Molt-4 cell lines were seeded as 4x10^5/ml, Reh and Nalm-6 cell lines were seeded 5x10^5/ml, Hek293T cell line was seed as 2x10^5/ml. All cells were incubated at 5% CO2 and 37 °C. All cell lines were kindly provided by Dr. M. Sayitoglu and Dr. Ö. Hatirnaz-Ng from Acibadem University.
(§2) MTT assay is a 3-day test. […]
(§3) After incubation (on the third day), to precipitate leukemia cells, the cell plate was centrifuged at 1500 rpm for 5 min. […] Then the optical density of each well was measured by using Thermo VarioSkan Flush Multimode Reader Quantum ST5-1100 at 570 nm wavelength.
(§4) Subsequently, viability rate of the cells at each concentration, as percentage, was determined by following formula (1): […]
(§5) The IC50 values were calculated by using GraphPad Prism. […] Results were analyzed and illustrated with Graph Pad Prism (version 5; GraphPad Software, San Diego, CA, USA). […]
Background: Tetrazolium assays rely on reduction of a dye to a coloured formazan, in cell work by metabolically active cells.

The subject of a further assay is K562. As to the kind of experiment: MTT assay, K562 cells. The following applies: Homo sapiens, 24 h, range 0.3–200 μM, six replicates. Type of assay: cell-based. On the procedure: as §1, §2, §3, §4, §5

The pIC50 is −log10 of the IC50, conventionally taken in molar units. A low value points to a large IC50. For the molecule `Cc1ccc(NC(=O)c2ccc(CN3CCN(C)CC3)cc2)cc1Nc1nccc(-c2cccnc2)n1` [imatinib, reference compound], the values for the pIC50 in the assay with Nalm-6 and in the assay with K562 were 4.79 and 4.11, respectively.
